# Primary screen of a compound library

Measurements from “University of Dundee, Small-Polar-MMV Screening Library” (2021), ChEMBL document CHEMBL3988442.

Values are the deposited “Percent Effect”, in %. The controls that fix the scale are not given in the record; negative values are as filed. Compounds were drawn at random from those tested, without regard to their results.

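Whole-cell growth test on Mycobacterium tuberculosis, read after 4 days in a medium based on cholesterol and the lipid DPPC; the read-out is not stated. Tested at 500 µM. Higher reads as more growth inhibition (inferred: compounds with an IC50 in retests scored well above the rest). Size under these conditions: about 18,000 compounds, about 900 of them at 50% or above in at least one test.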

| compound | percent effect |
|---|---|
| `O=C(CN1CCCC1)NCCc1cccs1` | 20.54 |
| `Cc1nscc1C(=O)OCCC(=O)NC(C)C` | 1.527 |
| `CSCC(=O)N1CCCC(c2nccn2C)C1` (centres undefined) | -13.6 |
| `COc1ccc(C(O)C2CCNCC2)cc1` (centres undefined) | 11.77 |
| `CCCNC(=O)N1CCN(CCC)CC1` | 34.51 |
| `NC(=O)c1cccc(NC(=O)N2CC(O)(C3CC3)C2)c1` | 6.67 |
| `O=C(NC1CCN(C2CCOCC2)CC1)c1ccoc1` | -10.36 |
| `c1cc2c(cc1CNc1nnc(C3CC3)o1)OCCO2` | 69.69 |
| `CN(C)C[C@@H]1[C@H]2CN(Cc3ccc(CO)o3)C[C@@H]12` | -4.349 |
| `Cn1cccc1C(=O)NCCc1ccncc1` | -5.238 |
| `CN(C)CCCNC(=O)COc1ccccc1` | -0.7956 |
| `CN(C)S(=O)(=O)c1ccc(OC(F)(F)F)cc1` | 2.49 |
| `O=C(CSCCO)Nc1ncc(-c2ccccc2)s1` | 61.03 |
| `C[C@H](O)c1ccc(-n2cccn2)c(F)c1` | 31.19 |
| `CCNC(=O)CN(CC)c1cccc(CO)c1` | -9.986 |
| `CCOC(=O)CCN(C)CCNC` | 1.981 |
| `CCS(=O)(=O)NCCNC(=O)c1ccccc1` | -0.5221 |
| `CC(C)CC(=O)NCC(C)NC(=O)CC(C)C` (centres undefined) | -2.581 |
| `COc1ncccc1CNC(=O)C1=NN(C)C(=O)CC1` | 3.666 |
| `CN(C)S(=O)(=O)c1ccc(I)c(C(=O)N2CCC2)c1` | 14.98 |
| `CC(C)CC1CCN(C(=O)CCn2cnnn2)C1` (centres undefined) | 76.27 |
| `Cc1nc(C(C)C)cc(N(C)CC(O)CO)n1` (centres undefined) | 1.979 |
| `COCCN1CCCN(C(=O)c2cc(C)no2)CC1` | -2.531 |
| `CC(=O)NCc1ccc(S(=O)(=O)NC2CCCCC2)s1` | 6.95 |
| `O[C@@H](Cc1ccccn1)c1ccccc1` | 19.98 |
| `FC(F)(F)CNC1COC1` | -16.83 |
| `Cn1ccc(C(=O)NCc2csc(Br)c2)cc1=O` | 39.25 |
| `COC(=O)c1sc(N2CCCCC2)nc1N` | 5.432 |
| `CNC(=O)N(C)C(C)C1CCN(C)CC1` (centres undefined) | 3.505 |
| `CCCc1ccc(C(=O)N2CCC(N)CC2)cc1` | 0.816 |
| `Cc1c(C(=O)NC(C)(CO)CO)cnn1C1CCCC1` | -14.2 |
| `CC(=O)NCc1cn2c(C)cccc2n1` | -11.56 |
| `CC(C)(C)OC(=O)N1C[C@@H]2[C@@H](N)[C@@H]2C1` | 6.459 |
| `OC[C@@H]1COCCN1` | 9.799 |
| `Cc1cc2nc(C(C)C)cc(N(C)CC(N)=O)n2n1` | -1.826 |
| `O=C(C1CCCO1)N1CCOc2ccccc2C1` (centres undefined) | -0.02683 |
| `N#CCCCn1ccccc1=O` | -7.093 |
| `NC(=O)C1(CNc2ncc(Br)cn2)CCOCC1` | 5.349 |
| `CSCc1ccc(C(=O)NC(C)Cn2cncn2)o1` (centres undefined) | 4.498 |
| `Cc1cccc2[nH]cc(CCN)c12` | 59.68 |
| `CC1CCCCN1S(=O)(=O)N1CCNCC1` (centres undefined) | 79.13 |
| `COc1cc(CN)cc(C)n1` | 12.9 |
| `Cc1noc(C(C)N2CCN(S(=O)(=O)N(C)C)CC2)n1` (centres undefined) | -8.5 |
| `COCc1ccc(C#N)cc1` | 10.12 |
| `CCOCC(=O)N[C@@H]1COCC[C@@H]1OCCN(C)C` | -16.9 |
| `N#CCSCCCSc1cnn[nH]1` | 9.184 |
| `CC(C)n1cnnc1C1CCNCC1` | -3.706 |
| `O=C(CCC1CCCCC1)NCc1c[nH]nn1` | 6.091 |
| `CCn1ncnc1CN1CCC(O)(CO)CC1` | -6.641 |
| `O=C(Cn1cccnc1=O)N1CCCC1c1cccs1` (centres undefined) | -4.437 |
| `O=C(CNc1ccc(Br)cc1)NCc1ncc[nH]1` | 29.74 |
| `CNS(=O)(=O)c1ccc(C(=O)NC(C)COC)cc1` (centres undefined) | -15.04 |
| `CCC(CC)C(CN)N1CCCC1` (centres undefined) | 38.88 |
| `O=C(c1cc(C2CC2)on1)N1CCN2CCC1CC2` | -11.04 |

The last 7 entries again:

- O=C(CCC1CCCCC1)NCc1c[nH]nn1 | 6.091%
- CCn1ncnc1CN1CCC(O)(CO)CC1 | -6.641%
- O=C(Cn1cccnc1=O)N1CCCC1c1cccs1 (centres undefined) | -4.437%
- O=C(CNc1ccc(Br)cc1)NCc1ncc[nH]1 | 29.74%
- CNS(=O)(=O)c1ccc(C(=O)NC(C)COC)cc1 (centres undefined) | -15.04%
- CCC(CC)C(CN)N1CCCC1 (centres undefined) | 38.88%
- O=C(c1cc(C2CC2)on1)N1CCN2CCC1CC2 | -11.04%